The values below come from patent US11311512B2, “Lymph directing prodrugs” (priority 2014, dated 2022).

The structures appear in SMILES notation.

For the series the following is noted: male, Sprague-Dawley, rat, in vivo. On the procedure: Lipid formulations containing the compound of interest were then administered to the animals, the lymph collected and drug concentrations in the lymph subsequently quantified.
Lipid-based formulations of the compounds of the invention or control compounds were prepared as previously described (Trevaskis, N. L. et al., Pharmaceutical Research, 2005, 22(11), 1863-1870). Briefly, approximately 2 mg of the compound (1 mg in the case of Compound 35 and Compound 1), 40 mg oleic acid and 25 mg Tween 80 were mixed in a glass vial until equilibrated (gentle heat (below 50° C.) may be applied for a short period).
[…] This was to eliminate the potential for the relatively high and variable levels of endogenous testosterone in male rats interfering with the quantification of exogenously dosed testosterone. Rats (240-320 g) were maintained on a standard diet and fasted overnight with free access to water prior to experiments. […] The collection tubes were changed hourly and lymph flow was measured gravimetrically. […]
Drug concentration in lymph is expressed as total drug and includes free drug and drug associated with different glycerides. […]

`CC(C)c1c(C(=O)Nc2ccccc2)c(-c2ccccc2)c(-c2ccc(F)cc2)n1CC[C@@H](O)C[C@@H](O)CC(=O)O` [ATV, atorvastatin, reference compound]: the “Increase fold (compared with parent drug group)” value was determined as 1.0 fold and the “Transport of total drug derivatives in lymph (% of dose)” value is 0.17 % of dose.
